Data as given in PubChem BioAssay AID720710 (VTT Finland, 2013)
Test: 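Knock-downs that leave cyclin E-high cells sensitive to replication stress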 (primary screen). Cell system: human U-2 OS bone cancer cells, parental and a cyclin E (CCNE1) overexpressing line. Reagent: single siRNA against human genes, 1 µM siRNA in the printed spot mix. Duration: 67 h. Treatment: half the arrays: hydroxyurea 2 mM for 16 h, then 3 h recovery; other arrays untreated. Measured: 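EdU click signal imaged per DAPI-stained nucleus at 67 h; each spot divided by its subgrid median, then z-scored relative to non-targeting control spots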. Reading the numbers: EdU z-score, cyclin E line, hydroxyurea and EdU z-score, parental, hydroxyurea and EdU z-score, cyclin E line, untreated and EdU z-score, parental, untreated: higher = more DNA synthesis than non-targeting controls.
In all, the deposit lists about 1,380 reagents; below is a part drawn at random. 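One array per condition without replicates; hydroxyurea arrays received 2 mM for 16 h plus 3 h recovery.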 No sequences are given here.

target	PubChem SID	EdU z-score, cyclin E line, hydroxyurea	EdU z-score, parental, hydroxyurea	EdU z-score, cyclin E line, untreated	EdU z-score, parental, untreated
PCGF3 (GeneID 10336)	SID164222472	-0.0223	-2.1	-1.48	-1.89
PCGF3 (GeneID 10336)	SID164222473	0.853	-0.296	-0.422	0.811
VPS4A (GeneID 27183)	SID164222982	-1.2	-2.26	-1.95	0.0614
VPS4A (GeneID 27183)	SID164222983	-0.883	-0.136	-0.263	0.621
USP1 (GeneID 7398)	SID164222968	-1.79	-2.08	-1.78	-1.46
USP1 (GeneID 7398)	SID164222969	2.17	1.65	-1.24	0.992
RPS6KA5 (GeneID 9252)	SID164222696	-0.274	1.32	-1.19	-0.46
RPS6KA5 (GeneID 9252)	SID164222697	-0.185	2.02	-0.381	1.4
TK2 (GeneID 7084)	SID164222888	-0.0792	-0.614	-1.74	-1.28
TK2 (GeneID 7084)	SID164222889	0.965	1.22	-0.191	-1.16
MYO6 (GeneID 4646)	SID164222354	-1.7	-0.825	-0.886	-2.53
MYO6 (GeneID 4646)	SID164222355	0.146	-0.0732	-0.44	-0.0986
HDAC1 (GeneID 3065)	SID164222044	-1.23	-3.16	-2.38	-2.67
HDAC1 (GeneID 3065)	SID164222045	0.906	-0.658	-0.26	0.856
ATP23 (GeneID 91419)	SID164223008	-2.18	-1.13	-1.64	-0.22
ATP23 (GeneID 91419)	SID164223009	-0.689	-1.02	-0.801	1.7
MDC1 (GeneID 9656)	SID164222298	-0.906	-0.28	-1.58	-0.103
MDC1 (GeneID 9656)	SID164222299	3.11	1.7	-0.674	0.872
LIG3 (GeneID 3980)	SID164222206	-0.611	-0.645	-1.52	-0.0631
LIG3 (GeneID 3980)	SID164222207	-0.204	0.133	0.292	0.497
PTTG1 (GeneID 9232)	SID164222576	0.223	0.462	-0.902	-0.568
PTTG1 (GeneID 9232)	SID164222577	0.988	1.97	0.173	0.518
PSMC4 (GeneID 5704)	SID164222572	-1.93	-0.522	-1.54	-2.16
PSMC4 (GeneID 5704)	SID164222573	1.31	0.765	-0.246	0.712
HDAC9 (GeneID 9734)	SID164222064	-2.74	-5.83	-1.91	-1.06
HDAC9 (GeneID 9734)	SID164222065	-0.121	1.07	-0.249	-0.824
TOP3A (GeneID 7156)	SID164222910	-0.23	-0.403	-1.65	-2.04
TOP3A (GeneID 7156)	SID164222911	0.326	3.37	0.761	1.52
FAM120B (GeneID 84498)	SID164221960	-0.479	-1.13	-4.13	-1.53
FAM120B (GeneID 84498)	SID164221961	0.399	2.43	-0.804	0.928
TNKS (GeneID 8658)	SID164222896	-2.55	0.299	-2.02	-1.86
TNKS (GeneID 8658)	SID164222897	0.677	0.878	-0.346	-0.741
RASSF8 (GeneID 11228)	SID164222614	-0.567	-1.18	-2.15	0.472
RASSF8 (GeneID 11228)	SID164222615	-0.0254	5.9	-0.545	0.822
SIRT6 (GeneID 51548)	SID164222762	-2.39	-1.39	-0.633	-2.11
SIRT6 (GeneID 51548)	SID164222763	2.02	0.624	-0.628	0.6
MSH3 (GeneID 4437)	SID164222336	-2.32	-0.265	0.174	-1.46
MSH3 (GeneID 4437)	SID164222337	0.201	1.24	2.01	0.685
CDKN1A (GeneID 1026)	SID164221808	-0.216	-2.37	-1.8	-3.1
CDKN1A (GeneID 1026)	SID164221809	1.61	2.33	-1.73	-1.77

3 entries from above, arranged by “EdU z-score, parental, untreated”, highest first.
target	PubChem SID	EdU z-score, cyclin E line, hydroxyurea	EdU z-score, parental, hydroxyurea	EdU z-score, cyclin E line, untreated	EdU z-score, parental, untreated
MYO6 (GeneID 4646)	SID164222355	0.146	-0.0732	-0.44	-0.0986
MYO6 (GeneID 4646)	SID164222354	-1.7	-0.825	-0.886	-2.53
HDAC1 (GeneID 3065)	SID164222044	-1.23	-3.16	-2.38	-2.67
